Results from publication PMC7852560 (Neuropsychopharmacology, 2020).
No constants are given. Whether binding was seen depends on the method and setting. In cells and extracts the contact can be indirect. Some entries that bind do so weakly or less than the wild type.

Sequences of proteins named here, by UniProt entry; tags and fusion partners are left off.
UniProt P21554: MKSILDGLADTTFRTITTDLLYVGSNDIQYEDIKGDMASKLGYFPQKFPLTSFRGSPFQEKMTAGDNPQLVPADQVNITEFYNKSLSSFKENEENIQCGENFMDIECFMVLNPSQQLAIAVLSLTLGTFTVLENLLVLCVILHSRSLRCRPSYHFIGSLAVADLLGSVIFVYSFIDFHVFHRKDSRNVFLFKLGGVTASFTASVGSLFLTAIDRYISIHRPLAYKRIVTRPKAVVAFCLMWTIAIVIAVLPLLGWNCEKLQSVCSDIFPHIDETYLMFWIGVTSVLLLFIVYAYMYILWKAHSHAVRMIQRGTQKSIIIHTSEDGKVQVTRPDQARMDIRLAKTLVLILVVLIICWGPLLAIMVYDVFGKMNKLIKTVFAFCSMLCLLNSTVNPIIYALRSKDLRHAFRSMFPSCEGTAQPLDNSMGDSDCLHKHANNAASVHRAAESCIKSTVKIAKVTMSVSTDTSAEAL
UniProt P32121: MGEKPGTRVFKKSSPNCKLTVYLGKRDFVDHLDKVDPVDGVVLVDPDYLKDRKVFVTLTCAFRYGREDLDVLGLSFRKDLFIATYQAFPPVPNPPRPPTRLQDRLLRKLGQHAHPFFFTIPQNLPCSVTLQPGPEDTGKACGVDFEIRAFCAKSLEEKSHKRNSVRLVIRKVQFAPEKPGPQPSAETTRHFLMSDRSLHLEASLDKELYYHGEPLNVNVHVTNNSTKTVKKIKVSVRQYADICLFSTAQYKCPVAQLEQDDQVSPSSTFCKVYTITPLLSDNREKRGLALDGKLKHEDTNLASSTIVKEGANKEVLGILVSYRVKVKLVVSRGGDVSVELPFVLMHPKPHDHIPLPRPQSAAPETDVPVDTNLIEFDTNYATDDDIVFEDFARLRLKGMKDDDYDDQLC

Biological target: cannabinoid CB1 receptor (UniProt P21554)
Assay: split reporter; PathHunter β-arrestin CB1R assay (enzyme fragment complementation) in cells, run by Eurofins Pharma Discovery Services; recruitment stimulated by the agonist CP55,940; ABM300 added at the EC80 of CP55,940 (10 nM) reduced it

binding: binds
Substance: β-arrestin2 (from UniProt P32121 1-409)
